The text below walks through data of US6583179B2, “Substituted aminoalkylamide derivatives as antagonists of follicle stimulating hormone” (Ortho-McNeil Pharmaceutical, Inc., priority 1999, dated 2003).

Protein sequences, listed by entry. Tags and fused reporters are not part of them. Residues count along the entry.
UniProt P23945, 18-695 limits assumed: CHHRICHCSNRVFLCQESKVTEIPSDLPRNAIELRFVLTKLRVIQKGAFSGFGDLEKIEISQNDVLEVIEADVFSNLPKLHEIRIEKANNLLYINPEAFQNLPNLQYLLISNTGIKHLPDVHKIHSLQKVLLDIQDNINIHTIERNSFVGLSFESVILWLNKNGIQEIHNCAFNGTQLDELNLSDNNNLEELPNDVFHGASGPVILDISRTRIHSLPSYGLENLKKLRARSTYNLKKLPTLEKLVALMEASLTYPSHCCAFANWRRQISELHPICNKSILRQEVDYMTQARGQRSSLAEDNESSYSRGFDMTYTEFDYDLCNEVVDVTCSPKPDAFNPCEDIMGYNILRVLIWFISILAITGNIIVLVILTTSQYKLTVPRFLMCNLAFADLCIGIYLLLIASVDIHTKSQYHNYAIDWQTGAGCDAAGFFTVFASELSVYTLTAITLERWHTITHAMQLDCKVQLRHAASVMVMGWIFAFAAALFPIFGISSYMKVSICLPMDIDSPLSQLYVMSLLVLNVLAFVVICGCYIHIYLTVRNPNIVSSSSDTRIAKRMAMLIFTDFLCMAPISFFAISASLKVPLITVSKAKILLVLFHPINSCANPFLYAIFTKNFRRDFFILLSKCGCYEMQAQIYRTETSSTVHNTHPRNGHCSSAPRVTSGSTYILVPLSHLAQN

In one assay the target is human FSH receptor (Homo sapiens, UniProt P23945). The assay is described as follows: hFSHR CHO cAMP assay (rhFSHR-cLUC cells, FSH-stimulated cAMP, radioimmunoassay). Particulars: read-out: EC50 hFSHR CHO cAMP; inhibition of cAMP produced by EC70 dose of FSH (4.85 nM); maximum concentration 50 μM. From the text:
Minimum Essential Medium-Alpha (MEM-alpha), fetal bovine serum (FBS), penicillin, streptomycin, geneticin, trypsin-EDTA, Hanks' Balanced Salt Solution (no Calcium chloride, Magnesium chloride, Magnesium sulfate, or phenol red; Ca-Mg free HBSS) were purchased from Gibco BRL (Gaithersburg, Md.). The cells used for the FSH bioassay (rhFSHR-cLUC) were Chinese Hamster Ovary cells (K-1; ATCC) stably transformed with human FSH receptor (pSVK-FSHr) and a cAMP luciferase reporter gene (responsive CGα-180LUC). Follicle Stimulating Hormone (Metrodin; Fertinex) was purchased from Serono, Ltd. (Norwell, Mass.).
The rhFSHR-cLUC cell cultures were maintained in MEM-Alpha supplemented with 10% heat-inactivated FBS (HIFBS), 100 U/ml penicillin, 100 μg/mL streptomycin, and included 0.1 g/L geneticin for stable cell selection.
Forty-eight hours after the cells were plated in sterile 96-well culture plates (Corning, Corning, N.Y.) the spent media was removed and 50 μl assay media (modified growth media with 2% HIFBS) containing 2 mM IBMX (3-isobutyl-1-methyl-xanthine) was added to the cells. Compounds (25 μl) in the appropriate concentration were added followed 5 minutes later by an EC70 dose of FSH (25 μl; 160 ng/ml; 4.85 nM). After 10 minutes @ 22.5° C. (room temperature) the reaction was terminated by addition of 25 μL 0.5 N hydrochloric acid to each well. The amount of cAMP produced was measured by radioimmunoassay in a FlashPlate (DuPont, Boston, Mass.). To each flash plate 60 μL flash plate buffer was added followed by 40 μL acidified cell sample or cAMP standard, followed with the addition of 100 μl ^125l-cAMP trace. The FlashPlates were sealed, incubated overnight @ room temperature, and counted in a Packard TopCount (Packard Instrument Co., Meriden, Conn.). The cAMP radioimmunoassay results were calculated using DPM conversion and log-logit transformation of % binding (Excel program).
(§1) Test compounds were solubilized in 30% dimethyl sulfoxide (DMSO) at a concentration of 10 mM before diluting to appropriate concentrations in assay medium. The final DMSO concentration in the treated cells and in the control cells was 0.75%.
For individual experiments, a set of samples were tested including a vehicle control (assay buffer), a reference compound (hFSH) at a range of concentrations designed to elicit a minimal to maximal response, and several concentrations of test compounds together with an EC70 concentration of standard (hFSH challenge). Each compound was performed in duplicates for the primary evaluation and quadruplicates for the dose-ranging experiments. The cAMP radioimmunoassay raw data (pmol) were calculated to provide average pmol cAMP produced/ml and the percent inhibition was calculated as shown below.
% Inh=[1−(Avg.pmoltest compound+standard)/(Avg.pmolstandard)]×100
EC50 values were calculated from an analysis of the concentration-inhibition data using a linear analysis of the data transformed to a log-logit format.
A general note: cAMP levels reflect the balance of adenylyl cyclase and phosphodiesterase activity.

Another assay relates to Rat Granulosa Cell. The assay is described as follows: Rat granulosa cell FSH-stimulated cAMP production. To be noted: read-out: Rat Granulosa Cell EC50 cAMP; inhibition of cAMP produced by EC70 dose of FSH (1.4 nM); maximum concentration 50 μM. As for the experimental part:
Insulin, diethylstilbesterol, androstenedione, forskolin and DMSO were purchased from Sigma (St. Louis, Mo.). Fungizone, penicillin/streptomycin, charcoal-treated heat inactivated fetal bovine serum (CT-HI-FBS) and Dulbecco's Modified Eagle Medium:Hams F12 medium containing 15 mM Hepes and L-glutamine (DMEM:F12), were purchased from GIBCO BRL (Grand Island, N.Y.).
Ovine FSH (NIADDK-oFSH-17; FSH potency=20 NIH-FSH-S1 U/mg; LH contamination=0.04 times NIH-LH-S1) was received from Ogden Bioservices Corporation, Rockville, Md. Human FSH (Fertinex), was purchased from Serono Pharmaceutical (Framingham, Mass.). Human chorionic gonadotropin (hCG) was purchased from Sigma (St Louis, Mo.).
Immature intact female rats (Wistar-derived strain; 21-23 days old) were implanted with a single pellet (Innovative Research of America, Sarasota, Fla.) containing 2.5 mg diethylstilbesterol (DES) for 3 days. On the third day, the animals were sacrificed, the ovaries were removed, and the granulosa cells were isolated essentially as described in Haynes-Johnson et al., Biol. Reprod., 61 (1), 147-153, (1999). Granulosa cells were plated at a density of 300,000 cells per ml with 0.2 ml added to each well of 96 well culture dishes (Corning, N.Y.). Cultures were incubated at 37° C. in a humidified incubator (95% air, 5% CO2) overnight (18 hours).
Androstenedione (100,000X) was prepared by dissolving the steroid in 100% ethanol, and was subsequently diluted to a final concentration of 10^−7M containing 0.1% ethanol in assay media. The assay media was serum-free, DES-free, insulin-free media, prepared by adding 5 mL pen-strep,1.5 mL fungizone and 5 μL androstenedione to 493.5 mL DMEM F-12 media.
as §1
Test plates containing the granulosa cells were preincubated for 18 hours at 37° C. with 95% air, 5% CO2, 100% humidity. The spent media was removed and 50 μl assay media (DMEM:F12) containing 2 mM IBMX (3-isobutyl-1-methyl-xanthine) was added to the cells. Compounds (25 μl) in the appropriate concentration were added followed 5 minutes later by an EC70 dose of FSH (25 μl; 50 ng/ml; 1.4 nM). After 30 minutes @ 22.5° C. (room temperature) the reaction was terminated by addition of 25 μL 0.5 N hydrochloric acid to each well. The amount of cAMP produced was measured by radioimmunoassay in a FlashPlate (DuPont, Boston, Mass.). To each flash plate 60 μL flash plate buffer was added followed by 40 μL acidified cell sample or cAMP standard, followed with the addition of 100 μl ^125l-cAMP trace. The FlashPlates were sealed, incubated overnight @ room temperature, and counted in a Packard TopCount (Packard Instrument Co., Meriden, Conn.). The cAMP radioimmunoassay results were calculated using DPM conversion and log-logit transformation of % binding (Excel program).

The match of structure and compound is tentative.

Take `COc1ccccc1CCN(CC(=O)N[C@H]1CC[C@H](N)CC1)S(=O)(=O)c1ccc(-c2ccsc2)cc1` (relative stereo): the EC50 at human FSH receptor was determined as 5.98 µM; in the assay with Rat Granulosa Cell, 0.32 µM.

A word on the EC50: it is the concentration giving half of the maximal effect.
